Source: the supplement of paper PMC5949888
Most values lie at the floor of the assay. Slopes are relative: functional sequences can read slightly below zero.

System: Saccharomyces cerevisiae PS128 hsf1 delta, HSF1(1-493) fusion
Assay: growth estimate (transactivation domain function in HSF1 fusion, heat-shock survival) (a.u. (slope of normalised read count over time)); higher = stronger growth at 37°C, i.e. more transactivation activity
Details: library: random library
Method: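 Random 60-nt DNA library encoding peptides of up to 20 aa, fused to the C-terminus of yeast HSF1 residues 1-493 (C-terminal TAD deleted) and expressed from the native HSF1 promoter on a CEN plasmid in hsf1-deleted S. cerevisiae PS128. Cells were selected at 37°C on -trp 5-FOA plates for 0, 2, 4, 6 and 8 days and amplicons were sequenced. Growth estimate is the slope of a robust linear fit of total-sum-normalised read counts (normalised to the first time point) over time, using at least 2 replicates. Sequences are classed functional (TAD activity) above a threshold of -0.13, set from stop-codon control sequences.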

| Substance | growth estimate |
| --- | --- |
| RHLRWGCCVGSSSPAILLYT | < -0.25 |
| VRI | < -0.25 |
| GRSGVSAPGRA | < -0.25 |
| AACEL | < -0.25 |
| NTPGSLTDYS | -0.243 |
| WVLRAFIRHPREVTKGRPPV | < -0.25 |
| NWECNSTWWYLGRNSFPAGN | < -0.25 |
| SLRSSILLRGSHKNIKLL | < -0.25 |
| TPWGFSEETKRSGPVLKAGE | < -0.25 |
| TIVSCAACIHV | < -0.25 |
| VPGKCGPKT | < -0.25 |
| CVDLIIIAFGRSIARRKHGA | < -0.25 |
| LEVVTAFGKGGYIQAY | < -0.25 |
| VAVALPSTRITIVRQPRYLR | < -0.25 |
| DASRRFMSLIPCHDPCPEVT | < -0.25 |
| LSIESTVVSRLPGSKR | < -0.25 |
| CSTSVGVQWVVSSANVRNND | < -0.25 |
| PVTIK | < -0.25 |
| ADPSP | < -0.25 |
| HWSINRVSSLKRLALRVGMG | < -0.25 |
| VLLSMAL | < -0.25 |
| ALDLNP | < -0.25 |
| ESVWGYHGLTDWE | < -0.25 |
| DWGDLVYVLATCISQTSSAI | < -0.25 |

| Substance | growth estimate |
| --- | --- |
| WVPPKSAYKNLRDDHELVPA | < -0.25 |
| AVT | < -0.25 |
| SYDSIGRLHTYLYRRDSKHA | < -0.25 |
| KMPSPNP | < -0.25 |
| SHHLLRYCDLDARIWAHGGL | < -0.25 |
| TIVEDIRCATGLLLIFSGVR | < -0.25 |
| SHWHRISKLAWEWHSGS | < -0.25 |
| RICSGPGTSTHMPGL | < -0.25 |
| CCYFLGRCHHSGQYPIALTV | < -0.25 |
| AVKRCSWRPR | < -0.25 |
| RELAHCSGTSA | < -0.25 |
| EDDSFFLGRVIYYLPWANGR | < -0.25 |
| GPRGVSVYWNVMVANVRRAG | < -0.25 |
| WQATRT | < -0.25 |
| STLMVQINGERAASP | < -0.25 |
| DVLWLSLPPGIL | < -0.25 |
| HELRFPDVGNGLSA | < -0.25 |
| RSRCSEVYVW | < -0.25 |
| TLGRASVLMCWRCAIGLTEP | < -0.25 |
| ILARRETM | < -0.25 |
| THF | < -0.25 |
| IGLIPGVLTPVDIYDCPLLD | < -0.25 |
| SQCWPTPEHAQSADLTTTAS | < -0.25 |
| LSRREGTYFVVNTSTWQAYS | -0.245 |

| Substance | growth estimate |
| --- | --- |
| CPWVKVQVGYKVLVPYRYST | < -0.25 |
| LIGDFML | < -0.25 |
| GLSARCSE | < -0.25 |
| RSSRSLISSVVSWYNEKLEP | < -0.25 |
| STEKPTAIVLVNVLRRMPAR | < -0.25 |
| PPDREAFRGIFRVPLSRCQH | < -0.25 |
| TNVPGSLVYLQEVSLYAMNQ | < -0.25 |
| DVHSLRHFAATFSRTGVHIC | < -0.25 |
| DTCQVPAHQRRFMAALYGAG | < -0.25 |
| CPWTRHYLSH | < -0.25 |
| LRRSNLMFMCGNRLLTLTPV | < -0.25 |
| RMQW | < -0.25 |
| SDCATLWERNVHGSRQAKAD | < -0.25 |
| GKLANWPETRHALGSHYMTL | < -0.25 |
| RYYVLLKPPVVLWDGRVHST | < -0.25 |
| APP | < -0.25 |
| QRSR | < -0.25 |
| RVGIRHYPEHN | < -0.25 |
| NRAYGNSNRRPAGTAGVGQ | < -0.25 |
| QNSGTCPESLTGAQARAVLA | < -0.25 |
| RSWNDVNAIAKLIVQSHSSA | < -0.25 |
| NSSVSWDPKHAGGLRYA | < -0.25 |
| CPDYVMGGTCVLPVKISYLT | < -0.25 |
| HIW | < -0.25 |

| Substance | growth estimate |
| --- | --- |
| LILWSGGKPLKGFRDKRTRS | < -0.25 |
| PLYL | < -0.25 |
| VCEIATGLRNATKEGSLSVR | < -0.25 |
| RFFRF | < -0.25 |
| PGGTRSVQCGLYSGIGRTNG | < -0.25 |
| CGHSELPCVFDMSDIAV | < -0.25 |
| GVSCLHIYEQALSQECASTS | < -0.25 |
| RVERFRLMSAKRRMCYFQSV | < -0.25 |
| RGYQLFHPHLPYPC | < -0.25 |
| KVAGTLDP | < -0.25 |
| MEN | < -0.25 |
| LMYCLGTSIVGMRFASHLCS | -0.246 |
| ISARANV | < -0.25 |
| VHIVKWLELLGLSTHSETRG | < -0.25 |
| AASGTRVSYGGVASPN | < -0.25 |
| NGFPTNSAVAYVIIGYPCPD | < -0.25 |
| ESFVNDLMSGLRFENLSSCA | < -0.25 |
| RINDPAVNWVSGDLEDRAHA | < -0.25 |
| LSISKHVGYYEGDHEDDSSP | < -0.25 |
| TGCSGQL | < -0.25 |
| HAAGPGGKTAAGLLLHSVNY | < -0.25 |
| GAWKEWVNGLDGDGAMVHGR | -0.241 |
| QVVGRPILTEQRRRSRINQL | < -0.25 |
| KYRLSGVEVIRTASAHCPLR | -0.207 |

Five successive entries already listed:

| Substance | growth estimate |
| --- | --- |
| RICSGPGTSTHMPGL | < -0.25 |
| CCYFLGRCHHSGQYPIALTV | < -0.25 |
| AVKRCSWRPR | < -0.25 |
| RELAHCSGTSA | < -0.25 |
| EDDSFFLGRVIYYLPWANGR | < -0.25 |

(continued)

| Substance | growth estimate |
| --- | --- |
| LGQGGCKNFGLRFRTSVTKP | < -0.25 |
| PMLYKGEDSLLSFEFWEPNG | -0.25 |
| GYSCSAIRS | < -0.25 |
| AICDETLITDSGHIEGATWS | < -0.25 |
| WPMA | < -0.25 |
| RECVRNDTDRTWGLVRIPVT | < -0.25 |
| PRLGRFLAKGNWPRLTPC | < -0.25 |
| TSIQRNWAPCHRAGNTKLKG | < -0.25 |
| LMESFTCTAVSVGR | < -0.25 |
| RIRFVCVVTV | < -0.25 |
| PEPWVVLLGTTLDSDSTSPK | < -0.25 |
| HTCPHLIDGSVEGVNTLARP | < -0.25 |
| SYPTFTIG | < -0.25 |
| GKAFQP | < -0.25 |
| GHSKRKSLSLLVNTSLDRNK | < -0.25 |
| KTACRTRGLGVRLEAAGSLQ | < -0.25 |
| LIPGT | < -0.25 |
| ANTANHLGAAVAQPWEETQR | < -0.25 |
| PKVWLTRLSSDNSASTSATF | < -0.25 |
| PFRGRFFGPRTGWPRS | < -0.25 |
| PRDSQISAPIFEAYLLNTST | < -0.25 |
| TSF | < -0.25 |
| KDRVASCI | < -0.25 |
| KRYLKHRRC | < -0.25 |

| Substance | growth estimate |
| --- | --- |
| TYSSIKETV | < -0.25 |
| ETLDKAVETYMSYL | 7.46 |
| FNLQINSRAV | < -0.25 |
| GGH | < -0.25 |
| VIFMRTATSQAMGPKLSVDP | < -0.25 |
| PPGF | < -0.25 |
| RWAYFSSVLTWAQKSGCIVS | < -0.25 |
| NDPREVDWLYMRRIKTDNSR | < -0.25 |
| DLACAHWCGGSRKLVQW | < -0.25 |
| KQATGKGPKIMGSGGPAMTT | < -0.25 |
| GWVH | < -0.25 |
| REVLRRLAGGSVESWLQECS | < -0.25 |
| TDSPHAVLAPTMLGSIRGGH | < -0.25 |
| RYLRDPSCTECRGTWTGQNH | < -0.25 |
| RVLG | < -0.25 |
| PLVPSLVVSGRSLLSHTLGN | < -0.25 |
| RPLVYGFGVNWRSRLSHACV | < -0.25 |
| RGCGTCPT | < -0.25 |
| PATVIYGAGVNGGVAVNQES | < -0.25 |
| TRIR | < -0.25 |
| VDVVPGGSPTQGRMFATVSR | < -0.25 |
| SLPMSPARPKVA | < -0.25 |
| QGRTCRTRQERVYHLAPGGG | < -0.25 |
| CIGSAPGAGRISCKSTEFRA | -0.245 |

| Substance | growth estimate |
| --- | --- |
| SDCREGGRVIEGNTLRQL | < -0.25 |
| VMNSVSW | -0.221 |
| GGSAKSQH | < -0.25 |
| NLLAISHFRQKATAAC | < -0.25 |
| YCWPHPTA | < -0.25 |
| SVLGLEAPGWDYPESAGSYQ | < -0.25 |
| RFAGAIRISPTNIFRGSRPG | < -0.25 |
| RNRIDGGWRSGKLPPLKRST | < -0.25 |
| EVTVTSPGIVLCLFGDLLTA | < -0.25 |
| ANPR | < -0.25 |
| SWMGPQKRLMASIEQCVRKA | < -0.25 |
| IKKTLKSLYNESNPLLMEGR | < -0.25 |
| GECSAKSGSVGGSQNPMALS | < -0.25 |
| LREVRIAPCSGFLAEIPGVH | < -0.25 |
| RDGYPCGLLSDSLNGIEVRD | < -0.25 |
| RIHDRGDPSKTV | < -0.25 |
| HGSIRIRVVPTSFDLREWAR | < -0.25 |
| SGWPGTGFRGSNGPAILFRC | < -0.25 |
| YWTNSLCQVC | < -0.25 |
| GKARY | < -0.25 |
| LHCHHTQWFTLSKGQIDVHH | < -0.25 |
| APRLSALGTVGFCLARHGRT | < -0.25 |
| GFSVKPVNI | -0.18 |
| DAGGSCVIGSQTAV | < -0.25 |

An excerpt of these results, tab-delimited.
Substance	growth estimate
SYPTFTIG	< -0.25
GKAFQP	< -0.25
GHSKRKSLSLLVNTSLDRNK	< -0.25
KTACRTRGLGVRLEAAGSLQ	< -0.25
LIPGT	< -0.25
ANTANHLGAAVAQPWEETQR	< -0.25
PKVWLTRLSSDNSASTSATF	< -0.25
PFRGRFFGPRTGWPRS	< -0.25
PRDSQISAPIFEAYLLNTST	< -0.25
TSF	< -0.25
KDRVASCI	< -0.25
KRYLKHRRC	< -0.25
TYSSIKETV	< -0.25
ETLDKAVETYMSYL	7.46
FNLQINSRAV	< -0.25
GGH	< -0.25
VIFMRTATSQAMGPKLSVDP	< -0.25
PPGF	< -0.25
RWAYFSSVLTWAQKSGCIVS	< -0.25
NDPREVDWLYMRRIKTDNSR	< -0.25
DLACAHWCGGSRKLVQW	< -0.25
KQATGKGPKIMGSGGPAMTT	< -0.25
GWVH	< -0.25
REVLRRLAGGSVESWLQECS	< -0.25
TDSPHAVLAPTMLGSIRGGH	< -0.25
RYLRDPSCTECRGTWTGQNH	< -0.25
RVLG	< -0.25
PLVPSLVVSGRSLLSHTLGN	< -0.25
RPLVYGFGVNWRSRLSHACV	< -0.25
RGCGTCPT	< -0.25
PATVIYGAGVNGGVAVNQES	< -0.25
TRIR	< -0.25
VDVVPGGSPTQGRMFATVSR	< -0.25
SLPMSPARPKVA	< -0.25
QGRTCRTRQERVYHLAPGGG	< -0.25
CIGSAPGAGRISCKSTEFRA	-0.245
SDCREGGRVIEGNTLRQL	< -0.25
VMNSVSW	-0.221
GGSAKSQH	< -0.25
NLLAISHFRQKATAAC	< -0.25
YCWPHPTA	< -0.25
SVLGLEAPGWDYPESAGSYQ	< -0.25
RFAGAIRISPTNIFRGSRPG	< -0.25
RNRIDGGWRSGKLPPLKRST	< -0.25
EVTVTSPGIVLCLFGDLLTA	< -0.25
ANPR	< -0.25
SWMGPQKRLMASIEQCVRKA	< -0.25
IKKTLKSLYNESNPLLMEGR	< -0.25
GECSAKSGSVGGSQNPMALS	< -0.25
LREVRIAPCSGFLAEIPGVH	< -0.25
RDGYPCGLLSDSLNGIEVRD	< -0.25
RIHDRGDPSKTV	< -0.25
HGSIRIRVVPTSFDLREWAR	< -0.25
SGWPGTGFRGSNGPAILFRC	< -0.25
YWTNSLCQVC	< -0.25
GKARY	< -0.25
LHCHHTQWFTLSKGQIDVHH	< -0.25
APRLSALGTVGFCLARHGRT	< -0.25

Additional results.

| Substance | growth estimate |
| --- | --- |
| TRGGSIDSH | < -0.25 |
| TGDT | < -0.25 |
| RRSGCAWTSRFGWVVYLYPF | < -0.25 |
| YLRSLCPVTEGSEKG | < -0.25 |
| TYCGYLPFESNGRL | < -0.25 |
| RVSIFIGPAGRGAIFANRQA | < -0.25 |
| PVVLVDYDPSESI | < -0.25 |
| PVPSIH | < -0.25 |
| LMAGGNSCDPTR | < -0.25 |
| PMVTRRLEDKRNRCLIPMSI | < -0.25 |
| YGESPRKGR | < -0.25 |
| YPCLAGRILKDHVRDCLQSD | -0.203 |
| IQLHVLRRFLPAMWLC | < -0.25 |
| QCRGVTQTGLPIVEFRAIRH | < -0.25 |
| VKLLRSRVT | < -0.25 |
| NWRIVVILGGKGCLRPTANC | < -0.25 |
| HRRFCMSDNLFECPPFQSMG | < -0.25 |
| EKWGRRFLHGTLC | < -0.25 |
| FGVALSSTRRVITGAGTGGT | < -0.25 |
| SCSTVTRPRPCKARRLPLNR | < -0.25 |
| EHGVDFGNMAGSS | < -0.25 |
